# In patent publication US20250205252A1, “7-KETOLITHOCHOLIC ACID FOR USE IN THE TREATMENT OF GUT DYSBIOSIS AND AS A PREBIOTIC” (NZP UK Limited, priority 2022, published 2025):
# At least one structure is not confirmed: it was looked up by name or label, or the drawing left a doubt.
# What was measured:
# [1] = test system: Eubacterium rectale (Erec482); assay: 3-stage gut model, flow-FISH enumeration, Eubacterium rectale; conditions: across V1, V2 and V3; not statistically significant
# [2] = test system: Faecalibacterium prausnitzii; conditions: male patients, colorectal adenomas removed, treated three years; cited from earlier work
# [3] = test system: Faecalibacterium prausnitzii (Fprau655); assay: 3-stage gut model, flow-FISH enumeration, Faecalibacterium prausnitzii; conditions: 7KLCA: V2 and V3
# [4] = test system: hydrogen- and methane-producing bacteria in the small intestine; conditions: cited from earlier work
# [5] = test system: Bifidobacterium spp. (Bif164); assay: 3-stage gut model, flow-FISH enumeration, Bifidobacterium
# Roseburia spp. (Rrec584) = assay: 3-stage gut model, flow-FISH enumeration, Roseburia; conditions: across V1, V2 and V3; not statistically significant
# [6] = test system: Streptococcus spp. (Strp); assay: 3-stage gut model, flow-FISH enumeration, Streptococcus; conditions: FIG. 6
# [7] = test system: Desulfovibrionales (DSV687); assay: 3-stage gut model, flow-FISH enumeration, Desulfovibrionales; conditions: FIG. 6
smiles,measurement,setting,value
"C[C@H](CCC(=O)O)[C@H]1CC[C@H]2[C@@H]3[C@@H](O)C[C@@H]4C[C@H](O)CC[C@]4(C)[C@H]3CC[C@]12C [UDCA, ursodeoxycholic acid, reference compound]",change in Eubacterium rectale between baseline and after treatment,[1],no such increase
same,incidence of Faecalibacterium prausnitzii,[2],increase in the incidence
same,change in numbers of Faecalibacterium prausnitzii between baseline and after treatment,[3],did not lead to increases
same,levels of hydrogen- and methane-producing bacteria,[4],reduce the levels
same,"increase in Bifidobacterium spp. (Bif164) between Baseline and after treatment, statistical significance",[5]; 3-stage gut model,no statistically significant increases
same,observed change in Bifidobacterium spp. numbers after treatment,"[5]; across all three stages (V1, 2 and 3)",no such increase
same,change in Roseburia spp. between baseline and after treatment,Roseburia spp. (Rrec584),no such increase
same,increases in pathogenic Streptococcus,[6],no statistically significant increases
same,increases in pathogenic Desulfovibrionales,[7],no statistically significant increases
